Reference: patent publication US5714469A, “Method of treating sepsis” (priority 1994, dated 1998)
Not every detail of the peptide structures is certain; ends, links or a residue may be inferred.

Legend:
[1] = tested on: Staph. aureus; experiment: Rat model of Staph. aureus, gram-positive sepsis, survival; type: in vivo; details: Example 6; for Survival (Alive/Dead): gentamicin 10 mg/kg/day twice a day
[2] = tested on: granulocyte macrophage colony farming units (CFU-GM); details: Pelus, L., et al. 1991. Exp. Hematol., 19:487; cited from earlier work
[3] = tested on: peritoneal macrophage; details: Frey C., et al., XI Congress ISHAM, p 151; cited from earlier work
[4] = tested on: serum colony stimulating activity; details: King A., et al. Exp. Hematol. 19:481; cited from earlier work
[5] = tested on: peritoneal macrophage; details: Frey C., et al., XI Congress ISHAM, p 151; cited from earlier work; remark: listed apart in the source

Compound: NCCCC[C@H](NC(=O)[C@H](CCCC[C@H](NC(=O)[C@H](CC(=O)O)NC(=O)[C@H](CCC(=O)O)NC(=O)[C@@H]1CCC(=O)N1)C(=O)N[C@@H](CCCCN)C(=O)O)NC(=O)[C@H](CC(=O)O)NC(=O)[C@H](CCC(=O)O)NC(=O)[C@@H]1CCC(=O)N1)C(=O)O [SK&F 107647, (S)-5-oxo-L-prolyl-L-α-glutamyl-L-α-aspartyl-N^8-(5-amino-1-carboxypentyl)-8-oxo-N^7-[N-[N-(5-oxo-L-prolyl)-L-α-glutamyl]-L-α-aspartyl]-L-threo-2,7,8 triaminooctanoyl-lysine]
- Survival (Alive/Dead) ([1]; 0.1 ng/kg/day single s.c. dose formulation on day -6): 18/7
- Survival (Alive/Dead) ([1]; 1.0 ng/kg/day single s.c. dose formulation on day -6): 18/7
- Survival (Alive/Dead) ([1]; 10.0 ng/kg/day single s.c. dose formulation on day -6): 21/4
- Survival (Alive/Dead) ([1]; 100.0 ng/kg/day single s.c. dose formulation on day -6): 11/14
- protection over gentamicin alone ([1]; 0.1, 1.0 or 10 ng/kg/day followed by gentamicin therapy (0.1 p<0.01; 1.0 p<0.01; 10 p<0.001)): statistically significantly increased protection
- granulocyte macrophage colony farming units (CFU-GM) [2]: stimulate
- peritoneal macrophage superoxide activity [3]: increases
- serum colony stimulating activity [4]: increases
- peritoneal macrophage candidacidal activity [5]: increases
